Assay results published in article PMC3690454, “14-3-3 Proteins Interact with a Hybrid Prenyl-Phosphorylation Motif to Inhibit G Proteins” (Cell, 2013).
Results are given in words; binding and its absence hold for the method and conditions named. For some of these results: In cells and extracts the contact can be indirect. Some entries that bind do so weakly or less than the wild type. Values belong to the molecule of their own block, whether it stands above or below them.

Protein sequences, listed by entry. Tags and fused reporters are not part of them. Lines headed by an entry give the natural chain unless they say otherwise; changes in a name come on top. Residues count along the entry.
UniProt Q13017, residues 382-1007: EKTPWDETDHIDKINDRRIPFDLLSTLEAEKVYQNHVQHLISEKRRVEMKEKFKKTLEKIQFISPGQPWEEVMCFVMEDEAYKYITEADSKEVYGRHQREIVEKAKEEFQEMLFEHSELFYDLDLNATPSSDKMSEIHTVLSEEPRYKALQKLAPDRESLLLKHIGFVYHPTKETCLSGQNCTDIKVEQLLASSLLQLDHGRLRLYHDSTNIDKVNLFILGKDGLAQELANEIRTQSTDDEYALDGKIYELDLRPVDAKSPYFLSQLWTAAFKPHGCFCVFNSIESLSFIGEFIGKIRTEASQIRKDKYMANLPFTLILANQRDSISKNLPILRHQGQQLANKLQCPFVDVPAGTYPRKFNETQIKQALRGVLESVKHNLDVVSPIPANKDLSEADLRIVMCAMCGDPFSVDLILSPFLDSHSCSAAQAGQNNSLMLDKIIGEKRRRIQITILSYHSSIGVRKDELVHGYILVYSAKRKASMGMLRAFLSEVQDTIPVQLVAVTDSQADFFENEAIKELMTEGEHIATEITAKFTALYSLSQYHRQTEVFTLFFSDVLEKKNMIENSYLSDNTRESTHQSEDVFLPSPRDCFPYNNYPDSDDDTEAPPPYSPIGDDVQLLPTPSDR
UniProt P31946: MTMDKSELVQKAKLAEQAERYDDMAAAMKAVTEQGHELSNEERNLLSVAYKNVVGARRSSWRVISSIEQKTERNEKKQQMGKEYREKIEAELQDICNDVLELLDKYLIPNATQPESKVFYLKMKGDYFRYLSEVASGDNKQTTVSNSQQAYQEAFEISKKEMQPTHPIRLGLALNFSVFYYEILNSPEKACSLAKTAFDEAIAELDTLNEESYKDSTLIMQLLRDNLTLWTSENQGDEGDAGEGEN
UniProt P63104: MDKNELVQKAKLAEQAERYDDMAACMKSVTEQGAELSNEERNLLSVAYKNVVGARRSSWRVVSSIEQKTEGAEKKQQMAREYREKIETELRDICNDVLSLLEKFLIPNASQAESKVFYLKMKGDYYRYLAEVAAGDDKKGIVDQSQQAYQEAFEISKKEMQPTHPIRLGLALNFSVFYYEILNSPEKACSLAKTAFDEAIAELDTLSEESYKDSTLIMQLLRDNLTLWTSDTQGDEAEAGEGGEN

Experiments:
[1] = target: T1, biotinylated Rap1A C-terminal peptide, phosphorylated, not geranylgeranylated; assay: BLI; Octet RED96; biotinylated peptides immobilised on streptavidin biosensors; dilution series of 14-3-3ζ; 25 mM Tris, 150 mM NaCl, 0.1% Tween-20; KD of +P-F by steady-state analysis; both purified
T1 sequence (peptide, biotin-aminohexanoic acid (N-Bio-Eahx) on the N-terminus; phosphoserine at 180): EKKKPKKKSC

Myc-Δp190B = Myc-Δp190B (UniProt Q13017); assay: co-IP; COS7 transfected with FLAG-Rnd3 constructs and Myc-Δp190B, with or without HA-14-3-3β, ROCK1 1-420 or calyculin A; IP with anti-FLAG, anti-Myc or anti-HA
HA-14-3-3β = HA-14-3-3β (UniProt P31946); assay: as above
GST-14-3-3β = GST-14-3-3β (UniProt P31946); assay: pull-down; the same competition experiment as a8, read for the peptide and GST-14-3-3β: peptides (10 μg/ml) preincubated 15 min at 4°C with GST-14-3-3β; both purified

Molecule: HA-14-3-3β (from UniProt P31946 1-246)
binding (Myc-Δp190B): no binding

B1: biotinylated Rnd3 C-terminal peptide, phosphorylated on S240 (+P−F) (peptide)
peptide: DLRKDKAKSC
modifications: biotin-aminohexanoic acid (N-Bio-Eahx) on the N-terminus; phosphoserine at 240
binding (GST-14-3-3β): binds weakly

More lines, now with the values ahead:

binding [1]: binds weakly
Molecule: hexa-His-tagged 14-3-3ζ (from UniProt P63104 1-245)

binding (HA-14-3-3β): no binding
Molecule: Myc-Δp190B (from UniProt Q13017 382-1007) (domain or fragment)
